The record followed here is publication PMC11322524.

Chains of the proteins cited; added tags and fusions are not shown. Chains listed by the source or under a name are the forms on record and can include a tag or linker.
MdWRKY24 (Malus domestica), one chain, as listed by the source: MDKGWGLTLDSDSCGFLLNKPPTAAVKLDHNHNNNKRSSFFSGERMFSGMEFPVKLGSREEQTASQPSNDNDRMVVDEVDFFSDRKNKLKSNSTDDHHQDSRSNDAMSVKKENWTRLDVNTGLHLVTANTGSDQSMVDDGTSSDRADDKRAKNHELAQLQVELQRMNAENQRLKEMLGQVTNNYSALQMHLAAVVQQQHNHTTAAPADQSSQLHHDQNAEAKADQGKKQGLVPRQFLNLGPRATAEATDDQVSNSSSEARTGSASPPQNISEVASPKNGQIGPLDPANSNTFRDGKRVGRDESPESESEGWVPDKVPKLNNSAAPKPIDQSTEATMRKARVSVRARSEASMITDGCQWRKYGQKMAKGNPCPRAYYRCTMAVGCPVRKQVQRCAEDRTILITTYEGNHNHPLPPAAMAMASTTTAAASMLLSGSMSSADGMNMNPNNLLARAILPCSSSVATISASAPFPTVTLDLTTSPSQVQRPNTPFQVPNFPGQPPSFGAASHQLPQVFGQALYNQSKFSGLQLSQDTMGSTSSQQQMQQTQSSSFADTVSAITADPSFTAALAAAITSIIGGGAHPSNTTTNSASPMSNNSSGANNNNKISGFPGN

The series concerns MdWRKY24 (Malus domestica). The series can be described thus: EMSA. Particulars: LightShift Chemiluminescent EMSA Kit (Thermo Fisher), pH and temperature not stated, recombinant protein, protein details: GST (N-terminal, pGEX-4T-1), label: 5' biotin. (In general: A gel shift assay detects complexes by their altered migration in electrophoresis.)

For at least one entry, the source does not settle the construct or the ends of the probe.

Consider “ATGATTTTTGACCAAACGATGTACG (double strand) [MdGASA1 promoter W-box probe]”, for which the binding result is given as “binds”.

Regarding “ACTTATATTGCTTGACTCTTCTCTTTAA (double strand) [MdSDH1 promoter W-box probe]”, the binding result (binding decreased with increasing competitor probe) is listed as “binds”.
